Data reported in US11559559B2, “Angiotensin II alone or in combination for the treatment of hypotension” (The George Washington University a Congressionally …, priority 2013, dated 2023).
Entries after “also recorded” stand apart in the source; their conditions may differ. Not every detail of the peptide structures is certain; ends, links or a residue may be inferred.

What was measured:
[1] = test system: patients with high-output shock; assay: Further studies (FIG. 4): very low dose angiotensin II titration in high-output shock patients on norepinephrine; format: in vivo, human
[2] = test system: patients with high output shock; assay: Randomized, double-blind, placebo-controlled trial of intravenous angiotensin II infusion in high output shock: norepinephrine requirement and secondary outcomes; format: in vivo, human; conditions: for CVP (central venous pressure) / Cardiac Output / Lactate / MAP / Urine Output: mean (s.d.)
[3] = of the ten patients who received ATII

## CC[C@H](C)[C@H](NC(=O)[C@H](Cc1ccc(O)cc1)NC(=O)[C@@H](NC(=O)[C@H](CCCNC(=N)N)NC(=O)[C@@H](N)CC(=O)O)C(C)C)C(=O)N[C@@H](Cc1c[nH]cn1)C(=O)N1CCC[C@H]1C(=O)N[C@@H](Cc1ccccc1)C(=O)O [ATII, angiotensin II]
[1]; angiotensin II 1.25-2.5 ng/kg/min, FIG. 4
  patients who responded to very low doses such that the MAP rose markedly: 20%
[1]; as little as 1.25 or 2.5 ng/kg/min, in the absence of or with very low doses of a catecholamine, result in words
  effect on blood pressure: show an increase in blood pressure and maintain it
[1]; low dose of Angiotensin II, catecholamines completely weaned off
  MAP: > 85 mm of Hg
[2]; ATII at lowest allowable dose of 5 ng/kg/min, norepinephrine titrated off
  MAP in the two highly sensitive patients: > 90 mm Hg
[2]; Hour 1 of ATII infusion, dose needed to maintain MAP 65 mm Hg, mean±SD, p=0.06 v. placebo
  mean norepinephrine dose: 7.4 ± 12.4 µg/min
[2]; Hour 2 of ATII infusion, dose needed to maintain MAP 65 mm Hg, mean±SD, p=0.06 v. placebo
  norepinephrine dosing: 7.3 ± 11.9 µg/min
[2]; Hr 0 (start of infusion)
  CVP (central venous pressure): 14.1(8.9)
  Cardiac Output: 6.6(2.6) liters/min
  Lactate: 4.6(3.1)
  MAP: 68.8(7.0)
  Urine Output: 45.9(96.5) cc
[2]; Hr 1
  CVP (central venous pressure): 14.8(7.3)
  Cardiac Output: 6.3(2.5) liters/min
  MAP: 74.8(8.4)
  Urine Output: 31.1(58.0) cc
[2]; Hr 2
  CVP (central venous pressure): 14.6(7.4)
  Cardiac Output: 6.2(2.5) liters/min
  MAP: 69.8(8.6)
  Urine Output: 33.7(67.1) cc
[2]; Hr 3
  CVP (central venous pressure): 14.8(8.8)
  Cardiac Output: 5.9(2.7) liters/min
  MAP: 73.1(12.5)
  Urine Output: 42.6(59.8) cc
[2]; Hr 4
  CVP (central venous pressure): 11.7(3.9)
  Cardiac Output: 6.5(2.4) liters/min
  MAP: 75.3(14.2)
  Urine Output: 35.9(50.0) cc
[2]; Hr 5
  CVP (central venous pressure): 12.1(4.8)
  Cardiac Output: 6.1(2.6) liters/min
  MAP: 68.9(8.1)
  Urine Output: 34.4(57.2) cc
[2]; Hr 6
  CVP (central venous pressure): 10.0(2.9)
  Cardiac Output: 6.7(3.3) liters/min
  Lactate: 5.2(4.1)
  Urine Output: 36.1(38.3) cc
[2]; Hr 7 (one hour post-infusion)
  CVP (central venous pressure): 12.6(4.8)
  Cardiac Output: 6.3(2.9) liters/min
  MAP: 72.3(11.9)
  Urine Output: 27.2(33.3) cc
[2]; Hr 8 (post-infusion)
  CVP (central venous pressure): 11.8(3.8)
  Cardiac Output: 7.5(3.1) liters/min
  MAP: 73.6(11.5)
  Urine Output: 23.8(27.3) cc
[2]; Hr-1 (before infusion)
  CVP (central venous pressure): 12.9(7.0)
  Cardiac Output: 6.0(3.1) liters/min
  MAP: 72.3(11.2)
  Urine Output: 28.6(32.4) cc
[2]; Hr-2 (before infusion)
  CVP (central venous pressure): 12.7(5.5)
  Cardiac Output: 7.0(2.7) liters/min
  MAP: 71.2(13.6)
  Urine Output: 41.7(51.7) cc
[2]; high output shock, with standard-of-care vasopressors
  dose range at which ATII was an effective pressor agent: 1 to 40 ng/kg/min
[2]; [3]
  patients exquisitely sensitive to ATII: two
  patients with a modest response to ATII: two
[2]; patients with high-output shock and multiple vasopressors, result in words
  effect on blood pressure: improved blood pressure
[2]; result in words
  effect of ATII infusion on norepinephrine dosing: marked decrease in norepinephrine doses; also recorded: reduction in norepinephrine dosing in all patients
